PubChem BioAssay AID652272, Drosophila RNAi Screening Center, 2013
The deposit covers about 21,000 reagents; this is an unselected part of those with a known target gene and a result. Of all reagents, 503 (2.4%) got an active call. 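Raw plate light values, not normalised; calls rest on replicate z-scores that were not deposited; hits include reporter decreases as well as increases.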 Entries without a mark were called inactive. Names joined by + are all predicted targets of the reagent. The record does not give: the amount of reagent, the time to read-out.

Aim: 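Finding fly genes that regulate Hedgehog signal transduction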 (primary screen)
System: Drosophila clone 8 (Cl8) cells
Reagents: long dsRNA against Drosophila genes
Detection: 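Firefly light from a Hedgehog-responsive ptc promoter reporter and Renilla reference light, both read on a plate reader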
Direction: firefly Hh reporter signal: higher = more ptc reporter light; Renilla reference signal: higher = more Renilla control light
Rule for the call: 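Hit when the z-score averaged over two replicates is under -2 or over +3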
Meaning of the calls: active = hit: reporter lowered or raised; inactive = not a hit

gene knocked down | firefly Hh reporter signal, replicate 1 | firefly Hh reporter signal, replicate 2 | Renilla reference signal, replicate 1 | Renilla reference signal, replicate 2
Cyp6g1 (GeneID 36316) | 1.07e5 | 55368 | 4440 | 2226
Ras85D (GeneID 41140) | 80140 | 96599 | 2480 | 2422
asRNA:CR43470 + CG14830 | 56922 | 51852 | 5925 | 3905
Or43b (GeneID 35743) | 72156 | 53069 | 1825 | 4600
ova (GeneID 34362) | 82432 | 57229 | 3692 | 2561
Obp18a (GeneID 32897) | 65352 | 2.83e5 | 2436 | 10489
CG13022 (GeneID 39896) | 79290 | – | 4384 | 2551
CG5033 (GeneID 37036) | 94042 | 56960 | 5067 | 3296
SkpE (GeneID 32997) | 99260 | 2.57e5 | 2269 | 10738
cathD (GeneID 45268) | 84551 | 62491 | 2073 | 4584
CG3528 (GeneID 33436) | 1.21e5 | 92293 | 2457 | 1986
Scamp (GeneID 32470) | 68217 | 1.75e5 | 1975 | 7107

Already shown: an excerpt of the list.
gene knocked down | firefly Hh reporter signal, replicate 1 | firefly Hh reporter signal, replicate 2 | Renilla reference signal, replicate 1 | Renilla reference signal, replicate 2
Ras85D (GeneID 41140) | 80140 | 96599 | 2480 | 2422
asRNA:CR43470 + CG14830 | 56922 | 51852 | 5925 | 3905

The list goes on:
gene knocked down | firefly Hh reporter signal, replicate 1 | firefly Hh reporter signal, replicate 2 | Renilla reference signal, replicate 1 | Renilla reference signal, replicate 2
Alms1a (GeneID 31393) | 59648 | 1.15e5 | 2240 | 4361
CG10725 (GeneID 39510) | 1.40e5 | 1.26e5 | 5657 | 4115
Papss (GeneID 40167) | 53602 | 93752 | 2443 | 3724
dac (GeneID 34982) | 1.33e5 | 64486 | 2953 | 2723
CG33259 (GeneID 2768950) | 1.32e5 | – | 4123 | 3622
Tmtc4 (GeneID 41867) | 68438 | 74489 | 1398 | 1574
CG14183 (GeneID 40192) | 1.17e5 | 81217 | 4624 | 3204
Ugt49B1 (GeneID 37420) | 87861 | 59860 | 2029 | 5530
CkIIalpha-i1 (GeneID 39721) | 1.42e5 | – | 5138 | 4244
Cpr65Aw (GeneID 38706) | 1.11e5 | 1.86e5 | 2875 | 9062
su(f) (GeneID 3354994) | 53334 | 1.25e5 | 1170 | 7111
